From patent US6476187B1, “Methods and reagents for discovering and using mammalian melanocortin receptor agonists and antagonists to modulate feeding behavior in animals” (Oregon Health & Sciences University, priority 1992, dated 2002)
At least one compound was matched to its structure with a doubt left.

By UniProt entry, the sequences of proteins in these tests, tags left out. Where a name states a change or a piece, a line headed by the entry shows the natural chain unless it says otherwise.
UniProt P41149: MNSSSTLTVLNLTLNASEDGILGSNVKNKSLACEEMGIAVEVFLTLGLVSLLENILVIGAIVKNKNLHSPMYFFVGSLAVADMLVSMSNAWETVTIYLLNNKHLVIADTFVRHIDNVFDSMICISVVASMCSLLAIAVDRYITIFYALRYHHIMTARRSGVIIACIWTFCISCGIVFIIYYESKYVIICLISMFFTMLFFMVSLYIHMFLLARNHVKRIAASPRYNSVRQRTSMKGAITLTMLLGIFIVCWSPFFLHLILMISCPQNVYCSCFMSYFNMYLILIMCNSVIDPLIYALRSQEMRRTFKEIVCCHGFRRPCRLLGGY

Target: T1, mouse MC-5 melanocortin receptor (Mus musculus, UniProt P41149)
T1 construct: expressed in transfected cells; host or cells: human 293 cells, pcDNA/neo, G418-selected
Assay: adenylate cyclase / cAMP-dependent β-galactosidase assay in 293 cells expressing MC-5 receptor
Type: cell-based
Conditions: MC-5 receptor agonists

## CSCC[C@H](NC(=O)[C@H](CCCN=C(N)N)NC(=O)[C@H](Cc1ccc(O)cc1)NC(=O)[C@@H]1CCCN1C(=O)CNC(=O)[C@H](CCC(=O)O)NC(=O)[C@H](CC(=O)O)NC(=O)[C@H](CCCCN)NC(=O)[C@H](CCCCN)NC(=O)[C@H](CCC(=O)O)NC(=O)[C@H](C)N)C(=O)N[C@@H](CCC(=O)O)C(=O)N[C@@H](Cc1c[nH]cn1)C(=O)N[C@@H](Cc1ccccc1)C(=O)N[C@@H](CCCN=C(N)N)C(=O)N[C@@H](Cc1c[nH]c2ccccc12)C(=O)NCC(=O)N[C@@H](CO)C(=O)N1CCC[C@H]1C(=O)N1CCC[C@H]1C(=O)N[C@@H](CCCCN)C(=O)N[C@@H](CC(=O)O)C(=O)O [βMSH]
  EC50: 5 nM
